Article PMC10873425

Amino acid sequences for entries named in this document (tags omitted). A change or cut given only in a name is not applied to a line headed by its entry.
UniProt Q5U4H9: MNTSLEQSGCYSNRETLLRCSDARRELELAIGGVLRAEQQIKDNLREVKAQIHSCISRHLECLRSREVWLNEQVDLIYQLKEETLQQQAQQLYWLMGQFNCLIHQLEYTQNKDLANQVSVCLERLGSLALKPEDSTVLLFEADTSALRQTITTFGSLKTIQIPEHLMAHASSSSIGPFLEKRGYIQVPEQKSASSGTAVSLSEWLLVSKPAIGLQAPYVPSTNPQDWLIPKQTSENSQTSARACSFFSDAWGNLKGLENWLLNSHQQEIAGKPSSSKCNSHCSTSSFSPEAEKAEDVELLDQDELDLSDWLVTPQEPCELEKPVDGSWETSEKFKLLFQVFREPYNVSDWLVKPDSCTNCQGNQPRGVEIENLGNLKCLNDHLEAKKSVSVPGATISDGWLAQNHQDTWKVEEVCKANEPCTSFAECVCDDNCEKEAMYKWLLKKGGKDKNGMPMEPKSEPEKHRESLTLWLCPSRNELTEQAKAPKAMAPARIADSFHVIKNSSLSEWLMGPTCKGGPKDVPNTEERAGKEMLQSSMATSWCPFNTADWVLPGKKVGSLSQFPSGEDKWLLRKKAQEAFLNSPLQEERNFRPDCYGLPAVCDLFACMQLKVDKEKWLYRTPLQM
UniProt P37238: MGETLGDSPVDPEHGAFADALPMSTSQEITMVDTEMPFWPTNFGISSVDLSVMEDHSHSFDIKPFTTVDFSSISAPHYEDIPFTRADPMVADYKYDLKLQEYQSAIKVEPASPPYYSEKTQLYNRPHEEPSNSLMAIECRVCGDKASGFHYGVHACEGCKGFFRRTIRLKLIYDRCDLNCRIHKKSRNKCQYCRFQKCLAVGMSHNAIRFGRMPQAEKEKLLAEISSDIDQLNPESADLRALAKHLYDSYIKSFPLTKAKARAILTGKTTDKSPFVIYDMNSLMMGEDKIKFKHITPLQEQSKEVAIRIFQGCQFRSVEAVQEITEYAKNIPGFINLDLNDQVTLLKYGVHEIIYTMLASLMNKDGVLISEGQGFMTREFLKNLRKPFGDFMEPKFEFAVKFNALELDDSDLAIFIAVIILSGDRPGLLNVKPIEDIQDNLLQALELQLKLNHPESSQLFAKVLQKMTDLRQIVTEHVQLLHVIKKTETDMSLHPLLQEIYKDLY

Target: HA-tagged ∆NCOA4^LxxAA (NCOA4 with mutant LxxLL motif) (mouse) (UniProt Q5U4H9)
Assay: co-IP; Flag-PPARγ and HA-NCOA4 (wild type or ∆NCOA4^LxxAA) expressed in cultured VSMCs (MOVAS); NP-40 lysate, anti-HA-tag or anti-Flag-tag, protein A/G PLUS-Agarose, 4 °C overnight, immunoblotting; with or without rosiglitazone (10 μM)

binding: binds
Substance: Flag-PPARγ (peroxisome proliferator-activated receptor-γ) (from UniProt P37238 1-505)

Results are given in words; binding and its absence hold for the method and conditions named. Binding seen in cells or lysates may run through a third protein. Binding calls can cover weak binding; strength is not graded here.
